Experimental data from the supplement of paper PMC8256030.
Several values for one entry are separate records, joined by “and”; a condition that tells them apart may be missing. Equal entries are not always repeated. Some of the results follow. Repeats in this data set agree poorly, so a single value says little.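 HEK293T cells were given each compound shortly before transfection with a reporter in which red mCherry is followed by the SARS-CoV-2 frameshift element and then GFP in the −1 frame, so GFP appears only after frameshifting.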

Tests used:
[1] = tested on: SARS-CoV-2 -1 PRF reporter mCherry-FSE-GFP(-1); assay: mCherry (red) intensity as percent of control; higher = higher upstream reporter expression; settings: 10 µM; 24 h; HEK293T
[2] = tested on: SARS-CoV-2 -1 PRF reporter mCherry-FSE-GFP(-1); assay: percent effect, decrease of GFP/mCherry ratio (-1 PRF reporter) relative to controls; higher = stronger frameshift inhibition; settings: 10 µM; 24 h; HEK293T

| Compound | mCherry [1] | percent effect [2] |
| --- | --- | --- |
| CCCC(CCC)C(=O)O[C@H]1C[C@H]2CC[C@@H](C1)[N+]2(C)C [octatropine methylbromide] | 92.8% | -1.65% |
| CCCCOC(=O)c1ccc(O)cc1 | 128% | -11.8% |
| NC(=O)Cc1cccc(C(=O)c2ccccc2)c1N [nepafenac] | 101% | -2.73% |
| O=C(c1cccnc1)N1CCOCC1 [nicopholine] | 115% | 2.64% |
| OC(CN1CCC(Cc2ccc(F)cc2)CC1)c1ccc(Cl)cc1 (stereo unspecified) [eliprodil] | 94.9% | -1.53% |
| CCOC(=O)OC(C)OC(=O)[C@@H]1N2C(=O)[C@@H](NC(=O)[C@H](N)c3ccccc3)[C@H]2SC1(C)C (stereo partly specified) [bacampicillin] | 101% | 1.14% |
| C[C@H]1C[C@H]2[C@@H]3CCC4=CC(=O)C=C[C@]4(C)[C@H]3C(=O)C[C@]2(C)[C@@]1(O)C(=O)CO [meprednisone] | 96.2% | -0.479% |
| Nc1nc(=O)[nH]cc1F [flucytosine] | 108% | -2% |
| Cn1c(NCCN(CCO)CCCc2ccc([N+](=O)[O-])cc2)cc(=O)n(C)c1=O [nifekalant] | 85.1% | -0.327% |
| NC(N)=NC(N)=NCCc1ccccc1 | 96.8% | -1.72% |
| CCCOc1ccc(S(=O)(=O)NCCC2CCCN2C)cc1-c1nc2c(CCC)nn(C)c2c(=O)[nH]1 (stereo unspecified) [udenafil] | 88% | -0.341% |
| Nc1nc(N)c2nc(CNc3ccc(C(=O)N[C@@H](CCC(=O)O)C(=O)O)cc3)cnc2n1 | 89.8% | 1.51% |
| O=c1cc[nH]c(=S)[nH]1 | 98.8% | -4.79% |
| Brc1c(NC2=NCCN2)ccc2nccnc12 [brimonidine] | 123% | -1.7% |
| CCN(CC)CCNC(=O)c1c(C)[nH]c(/C=C2\C(=O)Nc3ccc(F)cc32)c1C [sunitinib] | 101% and 100% | -17.3% and -9.52% |
| C#C[C@]1(O)CC[C@H]2[C@@H]3CCC4=CC(=O)CC[C@@H]4[C@H]3CC[C@@]21CC [levonorgestrel] | 85.6% and 106% | -1.47% and 3.39% |
| Cc1cccc(C)c1OCC(=O)N[C@@H](Cc1ccccc1)[C@@H](O)C[C@H](Cc1ccccc1)NC(=O)[C@H](C(C)C)N1CCCNC1=O [lopinavir] | 103% | -3.65% |
| Cc1scc2c1N(C(=O)CN1CCN(C)CC1)c1ccccc1NC2=O [Telenzepine·2HCl] | 109% | 1.83% |

Reformatted: entries from further up
Compound,mCherry [1],percent effect [2]
CCCC(CCC)C(=O)O[C@H]1C[C@H]2CC[C@@H](C1)[N+]2(C)C [octatropine methylbromide],92.8%,-1.65%
CCCCOC(=O)c1ccc(O)cc1,128%,-11.8%
